# From PubChem BioAssay (EPA / NIEHS)
# By UniProt entry, the sequences of proteins in these tests, tags left out.
# UniProt P49146, whole entry, looked up: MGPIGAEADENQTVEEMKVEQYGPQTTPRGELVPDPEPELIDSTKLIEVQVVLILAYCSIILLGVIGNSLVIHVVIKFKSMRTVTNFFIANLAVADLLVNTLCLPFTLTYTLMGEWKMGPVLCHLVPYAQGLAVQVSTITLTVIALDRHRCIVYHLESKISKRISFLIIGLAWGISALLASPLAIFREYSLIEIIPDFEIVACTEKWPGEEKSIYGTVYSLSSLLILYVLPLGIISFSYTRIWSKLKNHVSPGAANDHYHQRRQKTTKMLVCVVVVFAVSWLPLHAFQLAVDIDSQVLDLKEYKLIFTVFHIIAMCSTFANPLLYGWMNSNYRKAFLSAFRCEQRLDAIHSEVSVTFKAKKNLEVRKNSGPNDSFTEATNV
# This list was built around the results that the source calls inconclusive (neither active nor inactive); the mix of calls is not that of the screen. Where the call is inconclusive, the potency comes from a doubtful curve fit. Calls of active or inactive are those of the source. Rule for the calls: active = hit-call score of the fitted dose curve at least 0.9, where 1 is the maximum; inconclusive = response in the unintended direction; inactive = score below 0.9.
# Target: Neuropeptide Y receptor type 2 (Homo sapiens) (UniProt P49146)
# Experiment: NVS_GPCR_hNPY2: NovaScreen (NVS) G Protein-Coupled Receptor Assay for human Neuropeptide Receptor Y2 (NPY2) (AID 2283277)
# Description: NVS_GPCR_hNPY2 is a biochemical, single-readout assay that uses extracted gene-proteins from SK-N-MC in a cell-free assay. Measurements were taken 1 hour after chemical dosing in a 96-well plate.NVS_GPCR_hNPY2 is one of one assay component(s) measured or calculated from the NVS_GPCR_hNPY2 assay. It is designed to make measurements of radioligand binding, a form of binding reporter, as detected with scintillation counting signals by Filter-based radiodetection technology.Data from the assay component NVS_GPCR_hNPY2 was analyzed into 1 assay endpoint. This assay endpoint, NVS_GPCR_hNPY2, was analyzed in the positive analysis fitting direction relative to DMSO as the negative control and baseline of activity. Using a type of binding reporter, loss-of-signal activity can be used to understand changes in the binding as they relate to the gene NPY2R. Furthermore, this assay endpoint can be referred to as a primary readout, because the performed assay has only produced 1 assay endpoint. To generalize the intended target to other relatable targets, this assay endpoint is annotated to the gpcr intended target family, where the subfamily is rhodopsin-like receptor.
# Binding assays used specific radioligands (tritiated, iodinated) with non-radioactive competitive displacement ligands in agonist or antagonist protocols (as indicated) and various reference compounds and inhibitors to titrate specific binding to receptors and transporters. Most enzyme assays (CYPs, kinases, phosphatases, proteases, HDACs) used recombinant protein and specific substrates (fluorescence mostly, some colorimetric and radioactive) and inhibitors, followed by a biochemical separation of substrate and product. All assays for the biochemical HTS were initially run in duplicate at a single concentration (10 uM for CYP450 assays and 25 uM for all others). Assay-chemical combinations meeting a pre-defined threshold (e.g., 30% inhibition and other criteria defined below) were then run in singleton concentration-response format with maximum concentration of 20 uM for CYPs and 50 uM for all others. Each assay was run with positive and negative controls, and concurrent controls on every plate. The follow-up (secondary) screen tested active chemical-pairs in concentration series, as well as a few additional assays not tested in the primary screen, some selected negative inactives, and several cases re-run in the concentration series for confirmatory purposes.
SMILES,AC50,outcome
CCOc1cccc(C2(N3CCN(c4ccccc4)CC3)CCC(C)CC2)c1 (stereo unspecified),inconclusive: 25 µM,–
CC[C@H](C)[C@H]1O[C@]2(C=C[C@@H]1C)C[C@@H]1C[C@@H](C/C=C(\C)[C@@H](O[C@H]3C[C@H](OC)[C@@H](O[C@H]4C[C@H](OC)[C@@H](NC)[C@H](C)O4)[C@H](C)O3)[C@@H](C)/C=C/C=C3\CO[C@@H]4[C@H](O)C(C)=C[C@@H](C(=O)O1)[C@]34O)O2,inconclusive: 0.451 µM,–
CC(C)(C)C(O)/C(=C\c1ccc(Cl)cc1Cl)n1cncn1 (stereo unspecified),inconclusive: 25 µM,–
COc1nc(C)nc(NC(=O)NS(=O)(=O)c2ccccc2CCC(F)(F)F)n1,–,inactive
C=C(C)C(=O)[O][Sn]([CH2]CCC)([CH2]CCC)[CH2]CCC,active: 14.8 µM,–
COP(=S)(OC)Oc1ccc([N+](=O)[O-])cc1,active: 0.043 µM,–
CC(C)NC(=O)N1CC(=O)N(c2cc(Cl)cc(Cl)c2)C1=O,inconclusive: 25 µM,–
O=C(N[C@H]1CN2CCC1CC2)c1ccc2c(c1)OCCO2,inconclusive: 12.2 µM,–
Nc1ccc(Cl)cc1,–,inactive
Nc1cc(Cl)cc(C(=O)O)c1Cl,inconclusive: 25 µM,–
CC(=O)[O][Hg][c]1ccccc1,active: 8.48 µM,–

# 2 compounds drawn at random from the list so far, as already listed:
SMILES,AC50,outcome
Nc1ccc(Cl)cc1,–,inactive
CC[C@H](C)[C@H]1O[C@]2(C=C[C@@H]1C)C[C@@H]1C[C@@H](C/C=C(\C)[C@@H](O[C@H]3C[C@H](OC)[C@@H](O[C@H]4C[C@H](OC)[C@@H](NC)[C@H](C)O4)[C@H](C)O3)[C@@H](C)/C=C/C=C3\CO[C@@H]4[C@H](O)C(C)=C[C@@H](C(=O)O1)[C@]34O)O2,inconclusive: 0.451 µM,–
